Experimental data taken from article PMC5886150.
Results are given in words; binding and its absence hold for the method and conditions named. For part of these data: In cells and extracts the contact can be indirect. Some results given as binding are weak or reduced against the parent protein; the word gives no strength.

By UniProt entry, the sequences of proteins in these tests, tags left out.
UniProt P09651: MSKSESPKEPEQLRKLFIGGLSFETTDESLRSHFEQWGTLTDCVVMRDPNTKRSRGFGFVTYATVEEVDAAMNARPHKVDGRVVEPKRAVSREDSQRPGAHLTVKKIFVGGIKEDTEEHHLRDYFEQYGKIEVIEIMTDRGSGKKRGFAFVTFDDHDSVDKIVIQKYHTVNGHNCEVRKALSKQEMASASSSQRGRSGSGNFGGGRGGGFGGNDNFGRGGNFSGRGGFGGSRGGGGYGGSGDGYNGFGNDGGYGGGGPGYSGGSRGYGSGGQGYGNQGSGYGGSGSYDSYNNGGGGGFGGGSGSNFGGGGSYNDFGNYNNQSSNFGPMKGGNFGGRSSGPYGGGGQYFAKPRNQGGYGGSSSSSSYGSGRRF
UniProt P11142: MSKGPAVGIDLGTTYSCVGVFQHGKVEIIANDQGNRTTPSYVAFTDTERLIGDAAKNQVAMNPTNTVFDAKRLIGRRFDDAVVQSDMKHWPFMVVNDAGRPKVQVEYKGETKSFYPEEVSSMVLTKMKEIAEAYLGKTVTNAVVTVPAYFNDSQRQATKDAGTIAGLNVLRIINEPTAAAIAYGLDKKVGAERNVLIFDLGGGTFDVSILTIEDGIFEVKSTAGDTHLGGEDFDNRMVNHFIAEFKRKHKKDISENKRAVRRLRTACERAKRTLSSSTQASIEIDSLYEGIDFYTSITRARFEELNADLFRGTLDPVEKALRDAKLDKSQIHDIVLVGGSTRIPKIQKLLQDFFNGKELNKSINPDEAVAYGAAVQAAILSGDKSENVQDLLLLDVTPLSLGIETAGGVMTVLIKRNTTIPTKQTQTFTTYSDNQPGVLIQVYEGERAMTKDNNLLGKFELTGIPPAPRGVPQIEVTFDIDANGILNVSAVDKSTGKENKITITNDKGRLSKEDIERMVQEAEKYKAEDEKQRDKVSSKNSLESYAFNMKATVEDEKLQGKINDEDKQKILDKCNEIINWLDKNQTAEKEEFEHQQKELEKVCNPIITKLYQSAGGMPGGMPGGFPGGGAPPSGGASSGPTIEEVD
UniProt P04406: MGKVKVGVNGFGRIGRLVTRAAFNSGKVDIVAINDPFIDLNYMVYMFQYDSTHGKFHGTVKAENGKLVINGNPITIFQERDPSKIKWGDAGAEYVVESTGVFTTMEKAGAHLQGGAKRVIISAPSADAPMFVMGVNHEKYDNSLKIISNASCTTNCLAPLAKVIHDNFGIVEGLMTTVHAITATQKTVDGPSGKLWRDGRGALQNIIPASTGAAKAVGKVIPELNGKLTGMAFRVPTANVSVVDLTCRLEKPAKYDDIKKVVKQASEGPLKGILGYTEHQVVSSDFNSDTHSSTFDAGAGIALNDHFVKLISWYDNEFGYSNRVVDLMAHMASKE
UniProt P11940: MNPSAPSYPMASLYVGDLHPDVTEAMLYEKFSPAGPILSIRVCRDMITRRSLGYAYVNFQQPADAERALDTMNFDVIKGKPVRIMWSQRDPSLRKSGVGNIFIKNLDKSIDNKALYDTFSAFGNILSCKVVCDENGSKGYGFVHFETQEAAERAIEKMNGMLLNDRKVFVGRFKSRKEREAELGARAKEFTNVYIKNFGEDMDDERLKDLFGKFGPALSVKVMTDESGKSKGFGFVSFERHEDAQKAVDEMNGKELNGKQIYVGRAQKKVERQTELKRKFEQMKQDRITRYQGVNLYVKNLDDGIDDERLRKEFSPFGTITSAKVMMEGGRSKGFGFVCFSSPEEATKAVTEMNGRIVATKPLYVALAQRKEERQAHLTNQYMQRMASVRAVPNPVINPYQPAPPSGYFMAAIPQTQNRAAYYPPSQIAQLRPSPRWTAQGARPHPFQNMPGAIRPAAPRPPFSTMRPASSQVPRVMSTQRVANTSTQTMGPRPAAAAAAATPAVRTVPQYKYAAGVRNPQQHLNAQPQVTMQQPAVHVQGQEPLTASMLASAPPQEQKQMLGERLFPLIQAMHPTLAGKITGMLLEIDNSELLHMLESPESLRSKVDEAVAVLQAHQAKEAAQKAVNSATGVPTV

T1: DJ-1 (endogenous, human post mortem brain) (human (endogenous in post mortem brain)), Q99497
T1 chain: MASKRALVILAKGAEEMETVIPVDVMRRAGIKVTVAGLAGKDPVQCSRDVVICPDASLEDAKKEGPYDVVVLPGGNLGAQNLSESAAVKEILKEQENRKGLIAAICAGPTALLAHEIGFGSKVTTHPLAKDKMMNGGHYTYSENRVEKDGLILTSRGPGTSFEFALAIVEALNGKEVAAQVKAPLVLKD

B1: DJ-1 (endogenous, human post mortem brain), Q99497 1-189 (protein)
chain: T1 chain

Columns and labels:
[1] = molecular target: heterogeneous ribonucleoprotein A1 (human (endogenous in SH-SY5Y)) (UniProt P09651); assay: co-IP; immunoprecipitation of hnRNPA1 from SH-SY5Y cells, DJ-1 found in the precipitate
[2] = molecular target: wild type DJ-1 expressed in KD1 (DJ-1 knock down SH-SY5Y) cells (UniProt Q99497); assay: native gel or EMSA; two-dimensional BN/SDS PAGE of soluble complexes, second dimension 12.5% polyacrylamide-SDS-urea gel; western blot; co-migration
[3] = molecular target: wild type DJ-1 expressed in KD1 (DJ-1 knock down SH-SY5Y) cells (UniProt Q99497); assay: native gel or EMSA; blue native PAGE of soluble complexes extracted by sonication in sucrose buffer (250 mM Sucrose, 10 mM HEPES, 1.5 mM MgCl2, 10 mM KCl, pH 7.0) from brain or cells; 7.5% or 8-16% gradient gels; western blot
[4] = molecular target: T1, DJ-1 (endogenous, human post mortem …); assay: SDS PAGE and western blot (SDS-resistant dimer); human post mortem cortex homogenised in 10 mM Tris, pH7.4, 150 mM NaCl, 0.1% SDS; membranes probed for total DJ-1; details: remark: other sources report otherwise

| Molecule | binding [2] | also measured |
| --- | --- | --- |
| DJ-1 (endogenous, SH-SY5Y cells) (from UniProt Q99497 1-189) |  | binding [1]: binds |
| hsc70 (from UniProt P11142 1-646) | binds |  |
| Glyceraldehyde 3-phosphate dehydrogenase (from UniProt P04406 1-335) | binds |  |
| polyadenylate-binding protein 1 (from UniProt P11940 1-636) | binds | binding [3]: binds |
| B1 |  | binding [4]: binds |
